From PMC9370705, “Conformational Dynamics of Human ALKBH2 Dioxygenase in the Course of DNA Repair as Revealed by Stopped-Flow Fluorescence Spectroscopy”

Target: T1, ALKBH2 (Homo sapiens) (UniProt Q6NS38)
T1 sequence (looked up, limits assumed): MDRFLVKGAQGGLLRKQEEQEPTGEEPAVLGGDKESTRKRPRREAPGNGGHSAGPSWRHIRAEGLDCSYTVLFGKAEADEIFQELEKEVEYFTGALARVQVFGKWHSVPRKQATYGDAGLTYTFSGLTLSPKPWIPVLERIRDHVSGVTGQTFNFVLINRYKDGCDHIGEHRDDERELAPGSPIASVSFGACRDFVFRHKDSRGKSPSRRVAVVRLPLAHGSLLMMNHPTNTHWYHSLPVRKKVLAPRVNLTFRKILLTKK
Assay: Trp fluorescence titration
Conditions: range over all lesions and forms, 50 mM HEPES-KOH pH 7.5, 50 mM KCl, 10 mM MgCl2, 25 °C (titration, 1 uM enzyme per legend), 2 mM EDTA for apo, recombinant protein

Measured: binding result

ACAGGATCCGGCATA (double strand) [m1A]
binds: 40 uM Fe(II), 1.5-fold higher affinity than apo, N1-methyladenine at position 6 of strand 1 | 100 uM Co(II), 1 mM 2OG, N1-methyladenine at position 6 of strand 1 | apo, 2 mM EDTA, single values in Figure 3, N1-methyladenine at position 6 of strand 1

ACAGGATCCGGCATA (double strand) [m3C]
binds: 40 uM Fe(II), 1.5-fold higher affinity than apo, N3-methylcytosine at position 9 of strand 1 | 100 uM Co(II), 1 mM 2OG, N3-methylcytosine at position 9 of strand 1 | apo, 2 mM EDTA, N3-methylcytosine at position 9 of strand 1

ACAGGATCCGGCATA (double strand) [εA]
binds: 40 uM Fe(II), affinity as apo, 1,N6-ethenoadenine at position 6 of strand 1 | 100 uM Co(II), 1 mM 2OG, 2-fold lower Kd than apo, 1,N6-ethenoadenine at position 6 of strand 1 | apo, 2 mM EDTA, 1,N6-ethenoadenine at position 6 of strand 1

The exact form of at least one protein or probe is not confirmed. At least one verdict rests on a figure or table, not on a statement of the authors. Tags and fusion partners may be left off the protein sequences shown.
